According to article PMC8599447:
These are yes or no findings as the source states them, for the method shown. Binding seen in cells or lysates may run through a third protein. Some binding calls cover weakened binding; strength is not graded here. Sequences can lack the tags named with a protein.

Legend:
[1] = target: T1, Flag-TFCP2 (transcription factor CP2) (UniProt Q12800); test: co-IP; cells transfected with Flag-TFCP2 and HA-SREBP2(N) plasmids, 48 hours; RIPA lysate, primary antibody overnight at 4°C, Protein A/G agarose beads, western blot
T1 sequence: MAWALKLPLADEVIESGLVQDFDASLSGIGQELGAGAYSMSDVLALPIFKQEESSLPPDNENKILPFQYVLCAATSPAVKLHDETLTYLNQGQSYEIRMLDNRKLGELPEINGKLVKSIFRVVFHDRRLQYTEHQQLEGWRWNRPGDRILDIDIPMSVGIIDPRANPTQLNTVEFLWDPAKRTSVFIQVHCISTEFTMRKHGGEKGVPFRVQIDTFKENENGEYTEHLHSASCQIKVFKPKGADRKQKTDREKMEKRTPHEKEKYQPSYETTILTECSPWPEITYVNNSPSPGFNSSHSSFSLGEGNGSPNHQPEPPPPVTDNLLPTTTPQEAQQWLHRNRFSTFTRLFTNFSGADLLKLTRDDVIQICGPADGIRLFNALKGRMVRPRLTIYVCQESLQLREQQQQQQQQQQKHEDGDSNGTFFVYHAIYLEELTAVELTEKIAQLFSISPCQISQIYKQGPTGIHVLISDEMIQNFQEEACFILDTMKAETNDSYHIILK

[2] = target: T2, GST-SREBP2N fusion protein (1-485aa of SREBP2) (UniProt Q12772); test: pull-down; RIPA cell lysate mixed with 10 ug GST-SREBP2N fusion protein overnight at 4°C, Sepharose 4B beads 4 hours, washed with RIPA buffer, western blot; only the target purified
T2 sequence: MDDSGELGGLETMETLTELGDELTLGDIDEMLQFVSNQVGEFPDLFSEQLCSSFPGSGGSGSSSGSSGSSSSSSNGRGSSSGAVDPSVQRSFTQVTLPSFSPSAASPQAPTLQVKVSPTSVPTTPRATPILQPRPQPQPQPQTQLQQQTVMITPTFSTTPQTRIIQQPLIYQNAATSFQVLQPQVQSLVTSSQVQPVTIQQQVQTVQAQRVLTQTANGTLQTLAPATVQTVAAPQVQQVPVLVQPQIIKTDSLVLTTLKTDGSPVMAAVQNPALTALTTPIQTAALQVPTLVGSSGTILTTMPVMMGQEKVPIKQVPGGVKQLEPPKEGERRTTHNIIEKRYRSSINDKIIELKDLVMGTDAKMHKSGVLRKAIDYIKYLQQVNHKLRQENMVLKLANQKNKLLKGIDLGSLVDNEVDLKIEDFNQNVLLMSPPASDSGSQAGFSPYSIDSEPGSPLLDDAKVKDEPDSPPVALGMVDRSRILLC

B1: HA-SREBP2(N) (domain or fragment, UniProt Q12772 1-485)
chain: T2 sequence
In the case of B1, the binding [1] is reported as “binds”.

B2: TFCP2, endogenously expressed (protein, UniProt Q12800 1-502)
chain: T1 sequence
With B2 the binding [2] was “binds”.
